Assay results taken from ChEMBL document CHEMBL4513141, “CO-ADD screening of NIH (USA) - Clinical Collection” (2021).
The list shows a part of the results, in another mix than the full data. Potency and affinity values are given separately.

tested on: Escherichia coli; conditions: Concentration 20 uM; ASSAY_TEST Inhibition of Bacterial Growth; detection method Absorption (OD600); MEDIA CAMHB; plate type 384well; NBS; CORNING #3640; time 18 hr

Point of comparison: Cc1cnc(C(=O)NCCc2ccc(S(=O)(=O)NC(=O)NC3CCCCC3)cc2)cn1 [GLIPIZIDE], Inhibition 0.63%. Against it:
- CC(C)(C(=O)O)c1ccc(C(O)CCCN2CCC(C(O)(c3ccccc3)c3ccccc3)CC2)cc1.Cl (stereo not drawn) [FEXOFENADINE HYDROCHLORIDE] — higher, 1.44%
- COc1ccc2cc([C@H](C)C(=O)[O-])ccc2c1.[Na+] [NAPROXEN SODIUM] — higher, 5.74%
